This note sets out measurements from patent US6365178B1, “Method of making pressure sensitive adhesive matrix patches for transdermal drug delivery using hydrophilic salts of drugs and hydrophobic pressure sensitive adhesive dispersions” (priority 1996, dated 2002).

The data set in a line: Dissolution of drug substance in liquid adhesive or solvent during matrix preparation. The data set is classed as physicochemical. To be noted: Example 9, DURO-TAK 2516, equivalent to 1% (w/w) HCl salt. The method, then: Pressure sensitive adhesive matrix systems described herein were prepared as follows. First, the solids content of a water-based or solvent-based adhesive in liquid form was determined by placing a known weight of liquid in a weighed aluminum dish and evaporating the solvents overnight in a 70° C. convection oven. The content of solid adhesive in the liquid was calculated by dividing the adhesive solid weight after drying by the initial total liquid weight. In some cases, the polyisobutylene (PIB) adhesives were prepared from polyisobutylene solids. […] Next, a weighed quantity of adhesive liquid was added to a glass bottle, and the solid adhesive weight was calculated from the known solid fraction of the given adhesive liquid. The drug substance (hydrophilic salt or free drug form) was weighed and added to the adhesive solution in a quantity necessary to achieve a selected dry matrix film composition. The liquid containing the adhesive polymer drug substance was then mixed overnight. […] The cast was dried in a 70° C. convection oven for 15-30 minutes to yield a dried matrix onto which an 0.08 mm thick polyethylene backing film was laminated. These matrix systems were then used to conduct in vitro skin flux experiments as described below.

Structures can show the parent of a compound that is named as a salt.

As to `CCN(CC)CC(=O)Nc1c(C)cccc1C` [lidocaine HCl], the “Dissolution in organic solvent-based adhesive” value (HCl) is reported as “did not dissolve completely”.

`CCN(CC)CC(=O)Nc1c(C)cccc1C` [lidocaine free base, lidocaine]: the “Dissolution in organic solvent-based adhesive” value is recorded as “dissolved easily”.
